# Assay results as given in patent publication US20110039770A1, “INHIBITORS OF PROTEIN KINASE C ISOFORMS AND USES THEREOF” (PHARMAGAP INC., priority 2005, published 2011).
# The chains behind the UniProt entries cited, without tags or fusion partners. Where a name states a change or a piece, a line headed by the entry shows the natural chain unless it says otherwise.
# UniProt Q05655: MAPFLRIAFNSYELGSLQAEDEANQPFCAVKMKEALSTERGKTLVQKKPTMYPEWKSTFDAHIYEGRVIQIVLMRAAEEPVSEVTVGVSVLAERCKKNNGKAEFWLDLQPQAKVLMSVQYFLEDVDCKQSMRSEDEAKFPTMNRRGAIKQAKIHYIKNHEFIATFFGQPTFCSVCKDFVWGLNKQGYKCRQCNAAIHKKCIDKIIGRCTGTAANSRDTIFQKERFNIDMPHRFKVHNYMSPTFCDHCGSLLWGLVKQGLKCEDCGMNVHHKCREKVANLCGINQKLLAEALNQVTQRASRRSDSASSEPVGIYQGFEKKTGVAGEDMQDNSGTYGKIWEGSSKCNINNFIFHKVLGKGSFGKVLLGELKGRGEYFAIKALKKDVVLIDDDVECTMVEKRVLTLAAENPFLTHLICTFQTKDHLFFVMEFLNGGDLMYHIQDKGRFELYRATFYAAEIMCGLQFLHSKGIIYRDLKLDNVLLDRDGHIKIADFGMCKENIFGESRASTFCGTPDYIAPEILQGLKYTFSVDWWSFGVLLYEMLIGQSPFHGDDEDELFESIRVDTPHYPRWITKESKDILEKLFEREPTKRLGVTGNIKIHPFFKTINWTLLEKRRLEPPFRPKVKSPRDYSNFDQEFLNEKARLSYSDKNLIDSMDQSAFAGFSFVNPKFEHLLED
# Not every detail of the peptide structures is certain; ends, links or a residue may be inferred. At least one compound was matched to its structure with a doubt left. Where a SMILES comes first, the peptide text is derived from it. The star is where a group is joined. PNA(A) = NCCN(CC(=O)*)C(=O)Cn1cnc2c(N)ncnc21
# Legend:
# [1] = test system: IMR32 neuroblastoma cell line; assay: Cancer cell proliferation over 96 h, modified Hoechst assay; type: cell-based, human; conditions: 72 h (reversed at 96 h)
# PKCα = PKCα (Homo sapiens, UniProt P17252); assay: Immunocytochemistry of protein level in LS180 cells; type: cell-based; design: endogenous PKC-α in (A) untreated human neuroblastoma (IMR-32) cells; endogenous in cells; host or cells: IMR-32 human neuroblastoma cells; conditions: LS180; with doxorubicin
# PKC delta = PKC delta (Homo sapiens, UniProt Q05655); assay: Kinase-Glo Luminescent Kinase Assay; type: biochemical
# Protocol: (§1) Compounds TIM 10, 11, 13, 14, 15, and 18-22 (see Table 28) were tested for their ability to inhibit the activity of PKC-alpha, beta 1, delta and epsilon isoforms the Kinase-Glo™ Luminescent Kinase Assay (Promega, Cat # V6712/3/4) following the manufacturer's instructions.
# PKC epsilon = target: T1, PKC epsilon (Homo sapiens, UniProt Q02156); assay: Kinase-Glo Luminescent Kinase Assay; type: biochemical; design: purchased
# T1 sequence (Q02156 1-737): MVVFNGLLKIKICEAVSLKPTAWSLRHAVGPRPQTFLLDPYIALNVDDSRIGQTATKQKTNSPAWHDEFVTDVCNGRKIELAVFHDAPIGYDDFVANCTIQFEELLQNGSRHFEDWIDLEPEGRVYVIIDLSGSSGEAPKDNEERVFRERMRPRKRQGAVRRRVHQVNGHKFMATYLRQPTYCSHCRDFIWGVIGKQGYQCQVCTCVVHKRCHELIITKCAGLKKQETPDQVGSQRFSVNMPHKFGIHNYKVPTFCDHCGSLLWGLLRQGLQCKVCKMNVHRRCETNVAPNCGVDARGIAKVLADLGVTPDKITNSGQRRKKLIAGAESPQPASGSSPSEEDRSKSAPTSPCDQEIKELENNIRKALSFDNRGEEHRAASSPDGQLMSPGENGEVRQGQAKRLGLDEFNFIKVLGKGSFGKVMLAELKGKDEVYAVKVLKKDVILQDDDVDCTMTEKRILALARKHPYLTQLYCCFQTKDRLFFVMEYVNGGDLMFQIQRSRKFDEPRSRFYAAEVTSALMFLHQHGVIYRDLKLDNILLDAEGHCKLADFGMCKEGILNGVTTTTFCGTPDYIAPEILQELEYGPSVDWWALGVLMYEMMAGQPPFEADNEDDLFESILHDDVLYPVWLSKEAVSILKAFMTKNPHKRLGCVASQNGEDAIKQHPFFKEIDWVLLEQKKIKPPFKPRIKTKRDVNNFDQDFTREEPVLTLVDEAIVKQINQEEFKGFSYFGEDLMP
# Protocol: as §1
smiles,measurement,setting,value
CC[C@H](C)[C@H](NC(=O)[C@H](CO)NC(=O)[C@@H](NC(=O)CNC(=O)[C@@H](NC(=O)[C@H](CC(C)C)NC(=O)[C@H](CC(N)=O)NC(=O)[C@H](CCC(N)=O)NC(=O)[C@H](C)NC(=O)[C@H](CC(=O)OC)NC(=O)[C@H](CCCCN)NC(=O)CNC(=O)CNC(=O)CNC(=O)CNC(=O)CNC(=O)CNC(=O)CNC(=O)[C@H](CC(C)C)NC(=O)[C@H](CCCNC(=N)N)NC(=O)[C@H](Cc1ccccc1)NC(=O)[C@H](CCCCNC(=O)CN(CCN)C(=O)Cn1cnc2c(N)ncnc21)NC(=O)[C@H](CCCNC(=N)N)NC(=O)[C@H](CCCNC(=N)N)NC(=O)[C@H](Cc1ccccc1)NC(C)=O)[C@@H](C)CC)[C@@H](C)CC)C(N)=O [TIM 15] (Ac-FRRK(PNA(A))FRLGGGGGGGKD(OMe)AQNLIGISI-NH2),effect on cell population,[1],lower efficiency
same,expression of PKCalpha,PKCα,consistently diminished the labeling intensity
same,inhibition of PKC delta activity (in words),PKC delta,inhibited
same,inhibition of PKC epsilon activity (in words),PKC epsilon,only sensitive at the higher concentration
